Source: publication PMC6325625, “The traffic ATPase PilF interacts with the inner membrane platform of the DNA translocator and type IV pili from Thermus thermophilus” (FEBS Open Bio, 2018)
These are yes or no findings as the source states them, for the method shown. Binding calls can cover weak binding; strength is not graded here. Sequences can lack the tags named with a protein. For some assays here: In cells and extracts the contact can be indirect.

Protein sequences, listed by entry. Tags and fused reporters are not part of them. Lines headed by an entry give the natural chain unless they say otherwise; changes in a name come on top.
UniProt Q8VRL6: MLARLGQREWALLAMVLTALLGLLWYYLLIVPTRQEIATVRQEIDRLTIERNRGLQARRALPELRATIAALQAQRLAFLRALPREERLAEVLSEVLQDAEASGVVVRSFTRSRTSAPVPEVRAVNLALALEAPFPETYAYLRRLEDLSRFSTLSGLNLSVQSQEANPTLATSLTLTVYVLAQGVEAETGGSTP
UniProt Q8VRL7: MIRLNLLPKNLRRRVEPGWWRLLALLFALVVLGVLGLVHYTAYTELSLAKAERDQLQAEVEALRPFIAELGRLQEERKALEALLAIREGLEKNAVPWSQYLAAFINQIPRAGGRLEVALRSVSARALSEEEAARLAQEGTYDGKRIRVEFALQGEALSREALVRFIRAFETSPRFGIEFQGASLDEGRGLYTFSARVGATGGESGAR

T1: Strep-PilM (N-terminally Strep-tagged PilM) (Thermus thermophilus HB27) (UniProt Q8VRL8)
T1 sequence: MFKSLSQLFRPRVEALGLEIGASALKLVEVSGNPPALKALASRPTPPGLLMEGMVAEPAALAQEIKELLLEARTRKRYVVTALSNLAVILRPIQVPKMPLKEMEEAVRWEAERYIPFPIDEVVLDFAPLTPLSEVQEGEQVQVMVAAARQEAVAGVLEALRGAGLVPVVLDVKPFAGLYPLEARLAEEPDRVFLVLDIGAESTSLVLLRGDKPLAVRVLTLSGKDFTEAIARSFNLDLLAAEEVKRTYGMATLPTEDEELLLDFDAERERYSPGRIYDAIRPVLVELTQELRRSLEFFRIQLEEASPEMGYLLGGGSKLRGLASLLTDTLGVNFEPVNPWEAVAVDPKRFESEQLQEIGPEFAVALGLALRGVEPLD


Key:
[1] = molecular target: T1, Strep-PilM (N-terminally Strep-tagged PilM) (Thermus thermophilus HB27); assay: pull-down; Strep-tagged bait bound to 1 mL Strep-Tactin column, 500 μg purified PilF in 1 mL bicine buffer (100 mM bicine, 200 mM NaCl, 0.02% DDM, pH 8.5) co-incubated 15 min at room temperature; ten washes with MN buffer with 0.02% DDM; eluted with 2.5 mM D-desthiobiotin; SDS/PAGE, Coomassie; both purified
[2] = molecular target: PilO-Strep (Thermus thermophilus) (UniProt Q8VRL6); assay: native gel or EMSA; 5-20% clear-native PAGE of purified His6-PilMN-Strep, His6-PilMNO-Strep and His6-PilM; bands of PilMN cut out and run on 14% SDS/PAGE; both purified
[3] = molecular target: PilO-Strep (Thermus thermophilus) (UniProt Q8VRL6); assay: co-purification (Strep-Tactin affinity chromatography); His6-PilM, PilN and PilO-Strep co-produced in E. coli; membranes solubilised with DDM; Strep-Tactin column in MNO buffer pH 8.0, then Superdex 200; SDS/PAGE and western blot (antisera against PilM and PilN, Strep-Tactin HRP for PilO-Strep)

binding [1] | binding [2] | binding [3] | Molecule
binds | – | – | His6-PilF (traffic ATPase PilF, hexameric complex) (Thermus thermophilus) (enzyme)
– | binds | binds | PilN (untagged, co-produced from pET28a-PilMNO) (from UniProt Q8VRL7)
– | binds | binds | His6-PilM (co-produced with PilN and PilO-Strep from pET28a-PilMNO) (protein, UniProt Q8VRL8 1-377) MFKSLSQLFRPRVEALGLEIGASALKLVEVSGNPPALKALASRPTPPGLLMEGMVAEPAALAQEIKELLLEARTRKRYVVTALSNLAVILRPIQVPKMPLKEMEEAVRWEAERYIPFPIDEVVLDFAPLTPLSEVQEGEQVQVMVAAARQEAVAGVLEALRGAGLVPVVLDVKPFAGLYPLEARLAEEPDRVFLVLDIGAESTSLVLLRGDKPLAVRVLTLSGKDFTEAIARSFNLDLLAAEEVKRTYGMATLPTEDEELLLDFDAERERYSPGRIYDAIRPVLVELTQELRRSLEFFRIQLEEASPEMGYLLGGGSKLRGLASLLTDTLGVNFEPVNPWEAVAVDPKRFESEQLQEIGPEFAVALGLALRGVEPLD
